Patent publication EP2340832A1, “Morphinan-6-one compounds for the treatment or prevention of neurodegenerative diseases” (Universität Innsbruck, priority 2009, dated 2011)

Target: σ receptors labelled by [^3H]DTG (σ1 + σ2)
Assay: Sigma receptor binding assay, [3H]DTG
Conditions: read-out: IC50 ± SEM [^3H]DTG (σ1 + σ2); guinea pig brain membranes; compounds 1-5 tested up to 10 µM
Protocol: Filters were washed three times with 5 ml of ice-cold 10 mM Tris-HCI buffer (pH 8). The bound radioactivity was measured by liquid scintillation counting (Beckman Coulter™ LS6500). […] The values are expressed as the mean ± S.E.M of 2 - 4 independent experiments, each performed in duplicate.

O=C(CCCN1CCC(O)(c2ccc(Cl)cc2)CC1)c1ccc(F)cc1 [Haloperidol, reference compound]
IC50: 7.62 ± 1.4 nM
